Results deposited as PubChem BioAssay AID652248 (Drosophila RNAi Screening Center, 2013)
In all, the deposit lists 863 reagents; shown is a random part of them. 32 of all reagents (3.7%) were called active. 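Calls also used reproducibility and a similarity ranking whose scores are not deposited; many active genes show only modest elongated scores.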 Not all columns of the deposit are shown. Reagent sequences are not shown. Not given: the amount of reagent, the time to read-out.

Assay: 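Genes that govern switching among distinct shape types in fly blood cells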 (primary screen)
Cells: cultured Drosophila hemocytes
Knock-down reagent: long dsRNA against Drosophila genes
Detection: 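Automated microscopy of stained actin, tubulin and nuclei; single-cell shape measures assigned to five reference shape types, giving a score per dsRNA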
Scale: elongated score: higher = more elongated bipolar cells
Hit rule: 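Hits show a significant increase of elongated cells; higher rank given where elongated cells rose as other shape types fell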

The first 9 entries, to show the layout:
elongated score, rep 1 | elongated score, rep 2 | call | gene | amplicon
-0.53 | – | inactive | Cdc14 (Cell division cycle 14) | DRSC03013
0.22 | – | inactive | Cdc14 (Cell division cycle 14) | DRSC26430
-0.12 | – | inactive | twf (twinfilin) | DRSC15466
-0.32 | – | inactive | CG34384 | DRSC15444
0.04 | – | inactive | CG34384 | DRSC16575
1.09 | -0.34 | inactive | CaMKII (Calcium/calmodulin-dependent protein kinase II) | DRSC17214
-0.53 | -0.16 | inactive | Gprk2 (G protein-coupled receptor kinase 2) | DRSC16682
0.4 | – | inactive | Gprk2 (G protein-coupled receptor kinase 2) | DRSC23336
-0.53 | – | inactive | JIL-1 (JIL-1 kinase) | DRSC11200

Results, repeating the preview:
elongated score, rep 1 | elongated score, rep 2 | call | gene | amplicon
-0.53 | – | inactive | Cdc14 (Cell division cycle 14) | DRSC03013
0.22 | – | inactive | Cdc14 (Cell division cycle 14) | DRSC26430
-0.12 | – | inactive | twf (twinfilin) | DRSC15466
-0.32 | – | inactive | CG34384 | DRSC15444
0.04 | – | inactive | CG34384 | DRSC16575
1.09 | -0.34 | inactive | CaMKII (Calcium/calmodulin-dependent protein kinase II) | DRSC17214
-0.53 | -0.16 | inactive | Gprk2 (G protein-coupled receptor kinase 2) | DRSC16682
0.4 | – | inactive | Gprk2 (G protein-coupled receptor kinase 2) | DRSC23336
-0.53 | – | inactive | JIL-1 (JIL-1 kinase) | DRSC11200
-0.53 | – | inactive | Dgkepsilon (Diacyl glycerol kinase epsilon) | DRSC07399
0.34 | – | inactive | Pi3K92E (Phosphatidylinositol 3-kinase 92E) | DRSC16788
1.34 | – | inactive | CG7236 | DRSC03037
-0.06 | – | inactive | CG7236 | DRSC26976
-0.26 | – | inactive | mop (myopic) | DRSC11065
-0.03 | – | inactive | mop (myopic) | DRSC28489
-0.4 | – | inactive | Cdc7 (Cdc7 kinase) | DRSC18429
1.18 | – | inactive | Cdc7 (Cdc7 kinase) | DRSC27819
-0.01 | – | inactive | Pp1-13C (Protein phosphatase 1 at 13C) | DRSC20269
0.75 | – | inactive | Pp1-13C (Protein phosphatase 1 at 13C) | DRSC23305
-0.3 | – | inactive | Pp1-13C (Protein phosphatase 1 at 13C) | DRSC27492
0.42 | – | inactive | Alp2 (Alkaline phosphatase 2) | DRSC04354
-0.27 | – | inactive | Alp2 (Alkaline phosphatase 2) | DRSC26474
-0.21 | – | inactive | CG9222 | DRSC03158
2.82 | – | active | Liprin-beta | DRSC09795
6.8 | – | active | Liprin-beta | DRSC23339
0.66 | – | active | Liprin-beta | DRSC28695
0.75 | – | inactive | CG14297 | DRSC14776
0.46 | – | inactive | Adck5 (aarF domain containing kinase 5) | DRSC10890
-0.26 | – | inactive | Cdc2rk (Cdc2-related kinase) | DRSC07590
5.13 | – | active | Cdc2rk (Cdc2-related kinase) | DRSC29758
1.68 | – | inactive | CG11437 | DRSC11659
1.17 | – | active | Pten (Phosphatase and tensin homolog) | DRSC03402
7.75 | – | active | Pten (Phosphatase and tensin homolog) | DRSC29950
0.23 | – | inactive | CG10376 | DRSC02049
0.04 | – | inactive | CG10376 | DRSC26744
1.39 | -0.53 | inactive | Argk1 (Arginine kinase 1) | DRSC08959
-0.18 | – | inactive | Argk1 (Arginine kinase 1) | DRSC09668
-0.42 | – | inactive | Argk1 (Arginine kinase 1) | DRSC10460
-0.53 | – | inactive | Argk1 (Arginine kinase 1) | DRSC21558
-0.07 | – | inactive | Argk1 (Arginine kinase 1) | DRSC22665
0.04 | -0.34 | inactive | Atg1 (Autophagy-related 1) | DRSC09809
-0.53 | -0.53 | inactive | Atg1 (Autophagy-related 1) | DRSC09810
-0.14 | – | inactive | Ipp (Inositol polyphosphate 1-phosphatase) | DRSC16718
1.01 | – | inactive | Ipp (Inositol polyphosphate 1-phosphatase) | DRSC26058
-0.53 | – | inactive | TbCMF46 | DRSC02221
-0.53 | – | inactive | rdgA (retinal degeneration A) | DRSC18827
-0.53 | – | inactive | rdgA (retinal degeneration A) | DRSC27192
1.42 | – | inactive | ssh (slingshot) | DRSC16730
1.93 | – | inactive | ssh (slingshot) | DRSC28782
-0.27 | – | inactive | mri (mrityu) | DRSC08259
1.15 | – | inactive | mri (mrityu) | DRSC27787
-0.53 | – | inactive | Ak2 (Adenylate kinase 2) | DRSC04043
-0.16 | – | inactive | S6kII (Ribosomal protein S6 kinase II) | DRSC20645
-0.53 | – | inactive | Alp9 (Alkaline phosphatase 9) | DRSC10486
-0.17 | – | inactive | tefu (telomere fusion) | DRSC16060
8.29 | – | inactive | CG9452 | DRSC11075
1.86 | – | inactive | CG9452 | DRSC23344
6.45 | – | inactive | eas (easily shocked) | DRSC20329
6.77 | – | inactive | eas (easily shocked) | DRSC29435
-0.39 | – | inactive | metro (menage a trois) | DRSC06341
2.51 | – | inactive | metro (menage a trois) | DRSC06725
-0.02 | – | inactive | metro (menage a trois) | DRSC27336
2.12 | -0.53 | inactive | Mipp2 (Multiple inositol polyphosphate phosphatase 2) | DRSC18682
-0.42 | – | inactive | CG11438 | DRSC11660
-0.24 | – | inactive | inaC (inactivation no afterpotential C) | DRSC07632
0.12 | – | inactive | CG8726 | DRSC07250
6.07 | – | inactive | CG8726 | DRSC26566
0.32 | – | inactive | Alp12 (Alkaline phosphatase 12) | DRSC02515
-0.53 | – | inactive | nmdyn-D7 | DRSC17016
-0.53 | – | inactive | CG11425 | DRSC11657
-0.34 | – | inactive | CG11425 | DRSC28400
-0.53 | – | inactive | gwl (greatwall) | DRSC16305
0.54 | – | inactive | Eip63E (Ecdysone-induced protein 63E) | DRSC08658
-0.03 | – | inactive | RIOK2 (RIO kinase 2) | DRSC14413
1.9 | – | inactive | CG32568 | DRSC19913
2.7 | – | inactive | Pvr (PDGF- and VEGF-receptor related) | DRSC03080
1.32 | – | inactive | wdb (widerborst) | DRSC14163
-0.53 | – | inactive | ND-MWFE (NADH dehydrogenase (ubiquinone) MWFE subunit) | DRSC06364
5.53 | – | inactive | Spred (Sprouty-related protein with EVH-1 domain) | DRSC05976
1.63 | – | inactive | Spred (Sprouty-related protein with EVH-1 domain) | DRSC27475
0.07 | – | inactive | CG6800 | DRSC16119
-0.53 | – | inactive | INPP5E (Inositol polyphosphate 5-phosphatase E) | DRSC09723
1.11 | – | inactive | Ret (Ret oncogene) | DRSC03409
0.35 | – | inactive | Ret (Ret oncogene) | DRSC03410
0 | – | inactive | Adk2 (Adenosine kinase 2) | DRSC09827
-0.53 | – | inactive | Mkk4 (MAP kinase kinase 4) | DRSC16739
2.72 | – | inactive | Mkk4 (MAP kinase kinase 4) | DRSC29113
